Record: PubChem BioAssay AID1259308 (NCATS, 2017)
Purpose: 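Knock-downs that increase output of a recombinant reporter protein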 (primary screen). System: human HEK293 embryonic kidney cells stably expressing firefly luciferase (HEK-CMV-Luc2-Hygro). Knock-down reagent: single siRNA against human genes, 0.8 pmol siRNA per well. Time to read-out: 72 h. Measured: 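Reporter luminescence and viable-cell signal on separate replicate plates, given as percent of non-targeting control and median/MAD z-scores, plus per-cell luciferase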. Direction: total luciferase, z-score: higher = more reporter protein produced. Rule for the call: 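Active when the median/MAD z-score for overall luciferase is greater than 3; a gene was taken forward for validation with new siRNAs if at least two of its three siRNAs passed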. Calls: active = raised luciferase; inactive = no rise.
The deposit covers about 59,000 reagents; below is a part drawn at random. About 1,510 of all reagents (2.6%) count as active. 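Calls use total luciferase alone and ignore viability, so some active siRNAs may act by altering cell number.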 The numbers tell different reagents against one gene apart. Further read-outs or replicates are left out here. No sequences are given here.

RPS6KA1 #1 scored total luciferase, z-score -1.24; inactive.
RPS6KA1 #2 showed total luciferase, z-score -0.371; inactive.
Against RPS6KA1 #3 the deposit lists total luciferase, z-score -1.91; inactive.
Silencing of CFD #1 resulted in: total luciferase, z-score 2.5; inactive.
CFD #2 scored total luciferase, z-score 0.137; inactive.
For CFD #3, the entry reads total luciferase, z-score 1.65; inactive.
Against SMTNL1 #1, the entry reads total luciferase, z-score 0.843; inactive.
After knock-down of SMTNL1 #2 the results were total luciferase, z-score -0.71; inactive.
With knock-down of SMTNL1 #3, the screen gave total luciferase, z-score -1.29; inactive.
Silencing of ISG15 #1 gave: total luciferase, z-score 1.72; inactive.
After knock-down of ISG15 #2 the results were total luciferase, z-score -0.734; inactive.
ISG15 #3 gave total luciferase, z-score 0.8; inactive.
Against MYO5C #1 the deposit lists total luciferase, z-score 0.652; inactive.
For MYO5C #2, the values are total luciferase, z-score 0.234; inactive.
MYO5C #3 gave total luciferase, z-score 0.863; inactive.
MTARC2 #1 showed total luciferase, z-score 1.49; inactive.
Silencing of MTARC2 #2 gave: total luciferase, z-score -0.263; inactive.
With knock-down of MTARC2 #3, the screen gave total luciferase, z-score 0.609; inactive.
IDS #1 gave total luciferase, z-score -0.678; inactive.
After knock-down of IDS #2 the results were total luciferase, z-score 0.982; inactive.
Against IDS #3 the deposit lists total luciferase, z-score 0.932; inactive.
TAOK2 #1 gave total luciferase, z-score -0.63; inactive.
For TAOK2 #2, the values are total luciferase, z-score 0.274; inactive.
Depletion of TAOK2 #3 resulted in: total luciferase, z-score -0.271; inactive.
Against PPP2R5E #1, the values are total luciferase, z-score 1.54; inactive.
Depletion of PPP2R5E #2 resulted in: total luciferase, z-score -0.81; inactive.
PPP2R5E #3 gave total luciferase, z-score 3.21; active.
Against MDH1B #1, the values are total luciferase, z-score 0.666; inactive.
MDH1B #2 gave total luciferase, z-score -0.781; inactive.
Depletion of MDH1B #3 gave: total luciferase, z-score -0.481; inactive.
With knock-down of TMEM14A #1, the record shows total luciferase, z-score 1.26; inactive.
TMEM14A #2 showed total luciferase, z-score 0.669; inactive.
TMEM14A #3 gave total luciferase, z-score 1.71; inactive.

5 of these entries in another layout:
gene knocked down | siRNA no. | total luciferase, z-score | Call
MYO5C | 2 | 0.234 | inactive
MYO5C | 3 | 0.863 | inactive
MTARC2 | 1 | 1.49 | inactive
MTARC2 | 2 | -0.263 | inactive
MTARC2 | 3 | 0.609 | inactive
